Patent US6555062B1, “Reagent container for an automated analyzer” (Bayer Corporation, priority 1991, dated 2003)

System: monoclonal anti-digoxin antibody
Assay: Digoxin chemiluminescent immunoassay, specificity (cross-reactivity, effect on dose)
Format: binding
Conditions: level tested 20 ug/mL (cortisone, prednisone) or 1 ug/mL (estradiol, progesterone, testosterone)
Procedure: A digoxin assay has been developed for the above described automated analyzer. The digoxin assay architecture is a hapten solid phase with a labeled antibody (tracer reagent). In the preferred format of this assay, the tracer reagent is an acridinium ester labeled monoclonal anti-digoxin antibody; and the solid phase is paramagnetic particles to which digoxin-apoferritin has been immobilized. A test sample (150 uL.) and tracer reagent (50 uL.) are dispensed into a cuvette by the analyzer and incubated for 2.5 minutes at 37° C. The solid phase reagent (250 uL.) is then added to the cuvette followed by an additional incubation of 5.0 minutes. After the second incubation, magnetic separation and washes are performed as described above prior to detection of the chemiluminescent signal.
All data presented was generated based upon a two-point recalibration off an original master curve. The master curve was generated using eight standards with values ranging from zero to 6 ng/mL digoxin.
The test assay has a sensitivity of less than 0.1 ng/mL (minimum detectable dose defined as the 95% confidence limit at 0 ng/mL.) with a range of 0-5 ng/mL. The correlation of the automated test assay with a manual test assay (Magic^R Digoxin, Ciba Corning Diagnostics, Corp.) provided a slope of 1.00, an intercept of 0.08 and a correlation coefficient of 0.97 (N=130).

## C[C@]12CCC(=O)C=C1CC[C@@H]1[C@@H]2C(=O)C[C@@]2(C)[C@H]1CC[C@]2(O)C(=O)CO [Cortisone]
  Effect on Dose: N.S.

## C[C@]12C=CC(=O)C=C1CC[C@@H]1[C@@H]2C(=O)C[C@@]2(C)[C@H]1CC[C@]2(O)C(=O)CO [Prednisone]
  Effect on Dose: N.S.

## CC(=O)[C@H]1CC[C@H]2[C@@H]3CCC4=CC(=O)CC[C@]4(C)[C@H]3CC[C@]12C [Progesterone]
  Effect on Dose: N.S.

## C[C@]12CC[C@H]3[C@@H](CCC4=CC(=O)CC[C@@]43C)[C@@H]1CC[C@@H]2O [Testosterone]
  Effect on Dose: N.S.
